From article doi:10.1101/2025.06.21.660855 come the findings set out here.

In assay [1] the target is GST-Psv (Drosophila) (UniProt Q8SZN4). The assay can be described thus: pull-down.
For assay [2], the target named is T1, GST-Arm^34–87 (Drosophila) (UniProt P18824).
T1 sequence: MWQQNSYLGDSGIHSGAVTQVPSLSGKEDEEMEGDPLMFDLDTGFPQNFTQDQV
Put plainly: pull-down.

Results are given in words; binding and its absence hold for the method and conditions named. Binding seen in cells or lysates may run through a third protein. For part of these data: Binding can be weak; no strength is given. Sequences can lack the tags named with a protein.

Turning to MBP-Arm (from UniProt P18824 1-843), the binding result in assay [1] is on record as “binds”.

As for MBP-Psv (Drosophila), the binding result in assay [2] is reported as “no binding”.

B1: full-length MBP-Klp61F (protein, UniProt P46863 1-1066)
chain: MDISGGNTSRQPQKKSNQNIQVYVRVRPLNSRERCIRSAEVVDVVGPREVVTRHTLDSKLTKKFTFDRSFGPESKQCDVYSVVVSPLIEEVLNGYNCTVFAYGQTGTGKTHTMVGNETAELKSSWEDDSDIGIIPRALSHLFDELRMMEVEYTMRISYLELYNEELCDLLSTDDTTKIRIFDDSTKKGSVIIQGLEEIPVHSKDDVYKLLEKGKERRKTATTLMNAQSSRSHTVFSIVVHIRENGIEGEDMLKIGKLNLVDLAGSENVSKAGNEKGIRVRETVNINQSLLTLGRVITALVDRAPHVPYRESKLTRLLQESLGGRTKTSIIATISPGHKDIEETLSTLEYAHRAKNIQNKPEVNQKLTKKTVLKEYTEEIDKLKRDLMAARDKNGIYLAEETYGEITLKLESQNRELNEKMLLLKALKDELQNKEKIFSEVSMSLVEKTQELKKTEENLLNTKGTLLLTKKVLTKTKRRYKEKKELVASHMKTEQVLTTQAQEILAAADLATDDTHQLHGTIERRRELDEKIRRSCDQFKDRMQDNLEMIGGSLNLYQDQQAALKEQLSQEMVNSSYVSQRLALNSSKSIEMLKEMCAQSLQDQTNLHNKLIGEVMKISDQHSQAFVAKLMEQMQQQQLLMSKEIQTNLQVIEENNQRHKAMLDSMQEKFATIIDSSLQSVEEHAKQMHKKLEQLGAMSLPDAEELQNLQEELANERALAQQEDALLESMMMQMEQIKNLRSKNSISMSVHLNKMEESRLTRNHRIDDIKSGIQDYQKLGIEASQSAQAELTSQMEAGMLCLDQGVANCSMLQVHMKNLNQKYEKETNENVGSVRVHHNQVEIICQESKQQLEAVQEKTEVNLEQMVDARQQLITEDRQRFIGHATVATDLVQESNRQFSEHAEHQRQQLQICEQELVRFQQSELKTYAPTGTTPSKRDFVYPRTLVATSPHQEIVRRYRQELDWSDLDTTATIDECSEGEHDVSMHSVQELSETETIMNSTPIEPVDGVTVKRGCGTTRNSNSNALKPPVATGGKRSSSLSRSLTPSKTSPRGSPAFVRHNKENVA
Consider B1, for which, in assay [1], the binding result is “no binding”.
